# Reference: patent US20110256127A1
# By UniProt entry, the sequences of proteins in these tests, tags left out. Where a name states a change or a piece, a line headed by the entry shows the natural chain unless it says otherwise. Residues count along the entry.
# UniProt O75581: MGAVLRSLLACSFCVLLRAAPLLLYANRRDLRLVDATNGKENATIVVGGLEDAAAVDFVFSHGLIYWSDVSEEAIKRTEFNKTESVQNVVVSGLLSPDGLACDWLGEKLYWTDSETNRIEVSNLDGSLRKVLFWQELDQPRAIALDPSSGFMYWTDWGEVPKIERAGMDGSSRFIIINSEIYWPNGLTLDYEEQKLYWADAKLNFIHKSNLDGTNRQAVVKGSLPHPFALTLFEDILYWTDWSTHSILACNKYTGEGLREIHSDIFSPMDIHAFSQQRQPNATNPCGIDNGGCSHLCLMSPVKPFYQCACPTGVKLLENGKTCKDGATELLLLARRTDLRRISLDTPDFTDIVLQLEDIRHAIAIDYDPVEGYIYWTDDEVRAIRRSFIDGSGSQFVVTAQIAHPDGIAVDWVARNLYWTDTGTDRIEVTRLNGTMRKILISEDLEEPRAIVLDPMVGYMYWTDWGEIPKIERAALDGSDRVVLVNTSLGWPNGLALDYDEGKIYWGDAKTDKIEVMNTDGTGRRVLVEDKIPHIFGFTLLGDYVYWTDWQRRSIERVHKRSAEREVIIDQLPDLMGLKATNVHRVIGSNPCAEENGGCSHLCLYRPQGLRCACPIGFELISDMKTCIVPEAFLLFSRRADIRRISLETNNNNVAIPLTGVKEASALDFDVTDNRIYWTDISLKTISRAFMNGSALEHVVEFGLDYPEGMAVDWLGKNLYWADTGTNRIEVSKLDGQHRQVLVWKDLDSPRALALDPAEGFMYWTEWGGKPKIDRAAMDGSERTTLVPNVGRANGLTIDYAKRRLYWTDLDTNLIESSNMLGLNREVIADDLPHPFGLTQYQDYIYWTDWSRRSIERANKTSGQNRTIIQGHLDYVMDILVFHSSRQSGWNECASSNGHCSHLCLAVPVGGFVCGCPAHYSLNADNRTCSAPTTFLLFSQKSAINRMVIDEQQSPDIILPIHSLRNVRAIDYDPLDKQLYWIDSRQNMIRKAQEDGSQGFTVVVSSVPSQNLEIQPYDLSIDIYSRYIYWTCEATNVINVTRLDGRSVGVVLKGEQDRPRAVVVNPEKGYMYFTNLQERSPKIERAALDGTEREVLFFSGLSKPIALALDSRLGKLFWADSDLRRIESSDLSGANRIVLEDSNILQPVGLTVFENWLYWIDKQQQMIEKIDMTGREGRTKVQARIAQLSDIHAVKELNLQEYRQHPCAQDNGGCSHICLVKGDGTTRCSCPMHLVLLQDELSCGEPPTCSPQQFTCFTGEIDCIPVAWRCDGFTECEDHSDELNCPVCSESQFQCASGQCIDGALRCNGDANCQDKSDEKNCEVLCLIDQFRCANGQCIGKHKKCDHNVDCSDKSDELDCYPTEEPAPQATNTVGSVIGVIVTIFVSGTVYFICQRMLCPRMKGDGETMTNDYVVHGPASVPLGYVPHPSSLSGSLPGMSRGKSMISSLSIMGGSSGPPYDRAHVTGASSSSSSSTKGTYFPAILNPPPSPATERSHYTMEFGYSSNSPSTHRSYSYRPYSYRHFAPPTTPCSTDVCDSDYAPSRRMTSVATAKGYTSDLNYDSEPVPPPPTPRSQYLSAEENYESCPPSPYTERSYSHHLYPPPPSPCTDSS
# UniProt P56704, residues 19-352: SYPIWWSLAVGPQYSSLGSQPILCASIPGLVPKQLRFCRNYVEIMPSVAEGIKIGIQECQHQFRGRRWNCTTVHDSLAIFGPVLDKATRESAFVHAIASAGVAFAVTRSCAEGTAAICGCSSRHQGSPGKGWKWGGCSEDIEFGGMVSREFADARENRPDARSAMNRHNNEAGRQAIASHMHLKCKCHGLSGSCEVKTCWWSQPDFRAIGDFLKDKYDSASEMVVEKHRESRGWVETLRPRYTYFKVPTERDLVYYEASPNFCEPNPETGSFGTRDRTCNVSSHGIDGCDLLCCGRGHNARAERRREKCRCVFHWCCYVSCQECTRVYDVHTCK
# Results are given in words; binding and its absence hold for the method and conditions named. Some results given as binding are weak or reduced against the parent protein; the word gives no strength.
# Molecular target: LRP6.E1-E4 protein (Homo sapiens (Human)) (UniProt O75581)
# Assay: biolayer interferometry, biotinylated LRP6 E1-E4 on streptavidin biosensors; Wnt3a at 200 nM; association then dissociation phase
substance,measurement,value
Wnt3a (from UniProt P56704 19-352) (ligand),binding,binds
